Where a chain is given by its changes, count along the chain named. Results are given in words; binding and its absence hold for the method and conditions named. Binding seen in cells or lysates may run through a third protein. Some binding calls cover weakened binding; strength is not graded here. Tags and fused reporters may be left off the sequences shown.
T1: Nse3-3xSTII (S. cerevisiae) (UniProt Q05541)
T1 sequence: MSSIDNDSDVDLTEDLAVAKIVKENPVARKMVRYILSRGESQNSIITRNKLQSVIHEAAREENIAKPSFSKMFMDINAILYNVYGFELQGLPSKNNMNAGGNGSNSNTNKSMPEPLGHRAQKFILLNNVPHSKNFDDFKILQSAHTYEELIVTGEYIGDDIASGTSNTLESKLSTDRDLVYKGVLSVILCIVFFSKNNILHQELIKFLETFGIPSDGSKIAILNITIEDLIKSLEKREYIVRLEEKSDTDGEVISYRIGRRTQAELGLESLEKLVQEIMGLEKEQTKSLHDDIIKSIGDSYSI

B1: Smc5-13xMYC (protein, UniProt Q08204 1-1093)
chain: MTSLIDLGRYVERTHHGEDTEPRSKRVKIAKPDLSSFQPGSIIKIRLQDFVTYTLTEFNLSPSLNMIIGPNGSGKSTFVCAVCLGLAGKPEYIGRSKKVEDFIKNGQDVSKIEITLKNSPNVTDIEYIDARDETIKITRIITRSKRRSDYLINDYQVSESVVKTLVAQLNIQLDNLCQFLSQERVEEFARLKSVKLLVETIRSIDASLLDVLDELRELQGNEQSLQKDLDFKKAKIVHLRQESDKLRKSVESLRDFQNKKGEIELHSQLLPYVKVKDHKEKLNIYKEEYERAKANLRAILKDKKPFANTKKTLENQVEELTEKCSLKTDEFLKAKEKINEIFEKLNTIRDEVIKKKNQNEYYRGRTKKLQATIISTKEDFLRSQEILAQTHLPEKSVFEDIDIKRKEIINKEGEIRDLISEIDAKANAINHEMRSIQRQAESKTKSLTTTDKIGILNQDQDLKEVRDAVLMVREHPEMKDKILEPPIMTVSAINAQFAAYLAQCVDYNTSKALTVVDSDSYKLFANPILDKFKVNLRELSSADTTPPVPAETVRDLGFEGYLSDFITGDKRVMKMLCQTSKIHTIPVSRRELTPAQIKKLITPRPNGKILFKRIIHGNRLVDIKQSAYGSKQVFPTDVSIKQTNFYQGSIMSNEQKIRIENEIINLKNEYNDRKSTLDALSNQKSGYRHELSELASKNDDINREAHQLNEIRKKYTMRKSTIETLREKLDQLKREARKDVSQKIKDIDDQIQQLLLKQRHLLSKMASSMKSLKNCQKELISTQILQFEAQNMDVSMNDVIGFFNEREADLKSQYEDKKKFVKEMRDTPEFQSWMREIRSYDQDTKEKLNKVAEKYEEEGNFNLSFVQDVLDKLESEIAMVNHDESAVTILDQVTAELRELEHTVPQQSKDLETIKAKLKEDHAVLEPKLDDIVSKISARFARLFNNVGSAGAVRLEKPKDYAEWKIEIMVKFRDNAPLKKLDSHTQSGGERAVSTVLYMIALQEFTSAPFRVVDEINQGMDSRNERIVHKAMVENACAENTSQYFLITPKLLTGLHYHEKMRIHCVMAGSWIPNPSEDPKMIHFGETSNYSFD
B2: Smc5-2KE-13xMYC (protein, UniProt Q08204 1-1093)
chain: B1 chain with K624E, K631E

Target: T1, Nse3-3xSTII (S. cerevisiae)
Experiment: co-IP; yeast whole cell extracts; Nse3-3xSTII captured on StrepTactin XT resin overnight at 4°C; washes with lysis buffer (140 mM NaCl), high salt buffer (360 mM NaCl) and TE; blots with anti-Strep and anti-Myc (9E10)

Row | Binder | binding
1 | B1 | binds
2 | B2 | binds
